For one substance, binding results are on record in publication PMC11444156.

Sequences of proteins named here, by UniProt entry; tags and fusion partners are left off.
UniProt Q6X632: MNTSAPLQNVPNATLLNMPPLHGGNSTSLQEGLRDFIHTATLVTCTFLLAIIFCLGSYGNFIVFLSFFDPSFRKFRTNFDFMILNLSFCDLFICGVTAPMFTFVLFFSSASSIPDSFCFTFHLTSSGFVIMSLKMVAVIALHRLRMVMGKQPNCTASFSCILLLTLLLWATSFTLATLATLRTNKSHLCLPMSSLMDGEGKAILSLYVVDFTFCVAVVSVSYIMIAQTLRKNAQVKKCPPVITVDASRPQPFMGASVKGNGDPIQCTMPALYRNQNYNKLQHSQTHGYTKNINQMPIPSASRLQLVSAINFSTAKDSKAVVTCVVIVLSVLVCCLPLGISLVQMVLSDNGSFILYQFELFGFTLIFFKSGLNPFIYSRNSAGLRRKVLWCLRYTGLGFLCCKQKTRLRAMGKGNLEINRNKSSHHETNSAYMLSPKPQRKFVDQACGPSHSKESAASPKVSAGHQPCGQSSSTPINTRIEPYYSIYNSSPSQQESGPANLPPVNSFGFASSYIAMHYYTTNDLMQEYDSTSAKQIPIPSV
UniProt P21279: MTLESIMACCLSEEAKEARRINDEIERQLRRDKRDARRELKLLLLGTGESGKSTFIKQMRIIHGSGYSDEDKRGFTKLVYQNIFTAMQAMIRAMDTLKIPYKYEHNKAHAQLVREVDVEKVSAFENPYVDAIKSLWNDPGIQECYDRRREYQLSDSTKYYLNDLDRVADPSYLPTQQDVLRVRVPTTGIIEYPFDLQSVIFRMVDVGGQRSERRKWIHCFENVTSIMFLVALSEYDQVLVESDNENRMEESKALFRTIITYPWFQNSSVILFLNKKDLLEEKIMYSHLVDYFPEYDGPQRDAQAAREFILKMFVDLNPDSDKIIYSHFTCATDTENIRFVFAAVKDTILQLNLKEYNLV

These are yes or no findings as the source states them, for the method shown. Binding seen in cells or lysates may run through a third protein. Here binding means that the protein was enriched with, or labelled near, the bait; the list need not be complete.

The test addresses 3xFlag-tagged GPR75 (G protein-coupled receptor 75) of 3xFlag-Gpr75-knockin mice (mouse (endogenous in brain)) (UniProt Q6X632). Description: affinity purification with mass spectrometry; Flag antibody-conjugated beads on brain lysates of 3xFlag-Gpr75-knockin mice in Nonidet P-40 lysis buffer, 4°C, eluted with 3xFlag peptides, mass spectrometry.

For the substance “GNAQ (Gαq), guanine nucleotide-binding protein (from UniProt P21279 1-359)”, the binding result is “binds”.
